PubChem BioAssay AID1259254, NCATS | 2017
This is an unselected part of about 59,000 reagents tested. About 1,550 of all reagents (2.6%) count as active. 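G2 share is only a proxy for re-replication; each gene was hit by three separate siRNAs, and active genes were retested.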 Raw values are not corrected between plates. The numbers tell different reagents against one gene apart. Not given: the amount of reagent.

Aim: 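Finding genes that stop cells copying their DNA twice in one cycle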 (primary screen)
Cell system: human HCT116 colorectal cancer cells
Reagents: single siRNA against human genes
Time to read-out: 3 days
Detection: 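Imaged Hoechst DNA stain sorts each cell into a cycle phase by DNA amount; per plate, G2 fraction set to 0% for non-targeting and 100% for GMNN siRNA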
Scale: G2 robust z-score and G2 cells, % of GMNN control: higher = more G2 cells, more excess DNA replication; raw share of cells in G2: higher = larger share of cells with G2 DNA content
Hit rule: 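An siRNA counts as active if its G2 robust z-score lies at least 5 MADs above the screen median; here such calls match roughly 38% of GMNN control or more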

The opening 4 entries as a preview:
target | reagent no. | G2 robust z-score | G2 cells, % of GMNN control | raw share of cells in G2 (%) | activity call
NRG2 | 1 | -0.981 | -3.93 | 3.55 | inactive
NRG2 | 2 | 0.036 | 3.22 | 5.29 | inactive
NRG2 | 3 | 0.0584 | 3.38 | 4.63 | inactive
MT1XP1 | 1 | -0.0516 | 2.6 | 3.87 | inactive

The listing, from the first entry:
target | reagent no. | G2 robust z-score | G2 cells, % of GMNN control | raw share of cells in G2 (%) | activity call
NRG2 | 1 | -0.981 | -3.93 | 3.55 | inactive
NRG2 | 2 | 0.036 | 3.22 | 5.29 | inactive
NRG2 | 3 | 0.0584 | 3.38 | 4.63 | inactive
MT1XP1 | 1 | -0.0516 | 2.6 | 3.87 | inactive
MT1XP1 | 2 | 0.121 | 3.82 | 5.22 | inactive
MT1XP1 | 3 | 0.121 | 3.82 | 4.64 | inactive
COL13A1 | 1 | 0.148 | 4.01 | 5.05 | inactive
COL13A1 | 2 | -0.313 | 0.766 | 5.21 | inactive
COL13A1 | 3 | -0.805 | -2.7 | 2.13 | inactive
FAIM2 | 1 | -0.188 | 1.64 | 5.63 | inactive
FAIM2 | 2 | 1.67 | 14.7 | 10.2 | inactive
FAIM2 | 3 | 2.27 | 18.9 | 10.3 | inactive
RPS28P6 | 1 | 1.07 | 10.5 | 6.57 | inactive
RPS28P6 | 2 | 0.297 | 5.06 | 5.52 | inactive
RPS28P6 | 3 | -0.0845 | 2.37 | 4.44 | inactive
POGZ | 1 | 5.6 | 42.4 | 18.4 | active
POGZ | 2 | -0.791 | -2.6 | 3.29 | inactive
POGZ | 3 | 0.606 | 7.23 | 9.27 | inactive
SHKBP1 | 1 | 0.859 | 9.01 | 8.57 | inactive
SHKBP1 | 2 | 0.591 | 7.12 | 7.19 | inactive
SHKBP1 | 3 | -0.864 | -3.11 | 3.16 | inactive
CACNG6 | 1 | 3.13 | 25 | 16 | inactive
CACNG6 | 2 | -1.07 | -4.54 | 2.74 | inactive
CACNG6 | 3 | 2.4 | 19.9 | 11.4 | inactive
SAR1AP1 | 1 | -0.611 | -1.33 | 2.62 | inactive
SAR1AP1 | 2 | -0.452 | -0.212 | 3.7 | inactive
SAR1AP1 | 3 | 0.0955 | 3.64 | 4.57 | inactive
P2RY14 | 1 | 0.0181 | 3.09 | 6.95 | inactive
P2RY14 | 2 | 0.343 | 5.38 | 6.4 | inactive
P2RY14 | 3 | 4.83 | 37 | 14.6 | inactive
LPCAT3 | 1 | 2.04 | 17.3 | 13.2 | inactive
LPCAT3 | 2 | -0.529 | -0.753 | 6.18 | inactive
LPCAT3 | 3 | 0.314 | 5.17 | 5.51 | inactive
ZNF653 | 1 | -0.408 | 0.0998 | 5.01 | inactive
ZNF653 | 2 | 0.969 | 9.78 | 10.2 | inactive
ZNF653 | 3 | 1.05 | 10.3 | 8.39 | inactive
OR1L6 | 1 | 0.41 | 5.86 | 7.22 | inactive
OR1L6 | 2 | -0.536 | -0.801 | 3.52 | inactive
OR1L6 | 3 | 0.865 | 9.05 | 7.11 | inactive
COX7A2 | 1 | -0.991 | -4 | 2.4 | inactive
COX7A2 | 2 | -0.708 | -2.01 | 4.96 | inactive
COX7A2 | 3 | 1.51 | 13.6 | 10.1 | inactive
GID4 | 1 | -0.274 | 1.04 | 5.03 | inactive
GID4 | 2 | 1.07 | 10.5 | 9.3 | inactive
GID4 | 3 | -0.348 | 0.518 | 2.83 | inactive
MKNK2 | 1 | -0.0964 | 2.29 | 6.36 | inactive
MKNK2 | 2 | -1.24 | -5.73 | 3.48 | inactive
MKNK2 | 3 | 0.375 | 5.61 | 6 | inactive
